The other results are listed elsewhere or left out.
Tests used:
Test in all cases: log2 fold change, soluble protein after heating vs DMSO (PISA); higher = thermal stabilisation; K562 lysate, 10 uM; active = over 0.2 and 3.5 SD of the protein, either way, in both replicates (recomputed)
alvocidib = compound: CN1CC[C@H](c2c(O)cc(O)c3c(=O)cc(-c4ccccc4Cl)oc23)[C@H](O)C1 [alvocidib]
How it was run: (§1)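 A 30 min treatment with 10 μM compound was applied to crude K562 extract at 1 mg/mL protein in PBS pH 7.4 with 1 mM MgCl2. Heating for 3 min spanned 48°C-58°C, after which aliquots were pooled, adjusted to 0.5% NP-40 at 4°C and spun at 21,000xg for 90 min. TMTpro 16plex LC-MS/MS of the supernatant, with channel sums equalised, gave values recorded as log-two fold change in thermal stability against solvent controls, from duplicates.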

The chains behind the UniProt entries cited, without tags or fusion partners. Where a name states a change or a piece, a line headed by the entry shows the natural chain unless it says otherwise.
UniProt Q8TBF2: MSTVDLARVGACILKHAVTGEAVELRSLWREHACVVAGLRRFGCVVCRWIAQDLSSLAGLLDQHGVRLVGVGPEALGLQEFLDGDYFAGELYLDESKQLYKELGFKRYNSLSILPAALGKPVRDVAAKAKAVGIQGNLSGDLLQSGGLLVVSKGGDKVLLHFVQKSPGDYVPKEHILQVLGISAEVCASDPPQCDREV
UniProt Q14558: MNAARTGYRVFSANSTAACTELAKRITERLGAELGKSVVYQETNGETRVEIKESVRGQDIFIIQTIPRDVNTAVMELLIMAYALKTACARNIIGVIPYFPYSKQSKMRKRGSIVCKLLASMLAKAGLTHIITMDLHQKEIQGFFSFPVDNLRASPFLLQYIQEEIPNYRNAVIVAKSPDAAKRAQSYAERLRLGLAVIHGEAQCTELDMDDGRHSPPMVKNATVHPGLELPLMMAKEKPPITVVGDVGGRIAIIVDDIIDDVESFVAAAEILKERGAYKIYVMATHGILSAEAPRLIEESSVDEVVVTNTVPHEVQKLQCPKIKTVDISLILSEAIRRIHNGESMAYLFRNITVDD
UniProt P25788: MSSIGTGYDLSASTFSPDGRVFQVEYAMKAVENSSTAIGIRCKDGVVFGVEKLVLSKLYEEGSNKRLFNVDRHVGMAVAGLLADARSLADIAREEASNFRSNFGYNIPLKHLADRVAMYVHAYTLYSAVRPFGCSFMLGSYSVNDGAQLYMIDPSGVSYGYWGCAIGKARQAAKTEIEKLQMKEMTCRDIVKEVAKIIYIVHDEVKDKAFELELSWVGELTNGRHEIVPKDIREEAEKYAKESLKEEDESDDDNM
UniProt P08575: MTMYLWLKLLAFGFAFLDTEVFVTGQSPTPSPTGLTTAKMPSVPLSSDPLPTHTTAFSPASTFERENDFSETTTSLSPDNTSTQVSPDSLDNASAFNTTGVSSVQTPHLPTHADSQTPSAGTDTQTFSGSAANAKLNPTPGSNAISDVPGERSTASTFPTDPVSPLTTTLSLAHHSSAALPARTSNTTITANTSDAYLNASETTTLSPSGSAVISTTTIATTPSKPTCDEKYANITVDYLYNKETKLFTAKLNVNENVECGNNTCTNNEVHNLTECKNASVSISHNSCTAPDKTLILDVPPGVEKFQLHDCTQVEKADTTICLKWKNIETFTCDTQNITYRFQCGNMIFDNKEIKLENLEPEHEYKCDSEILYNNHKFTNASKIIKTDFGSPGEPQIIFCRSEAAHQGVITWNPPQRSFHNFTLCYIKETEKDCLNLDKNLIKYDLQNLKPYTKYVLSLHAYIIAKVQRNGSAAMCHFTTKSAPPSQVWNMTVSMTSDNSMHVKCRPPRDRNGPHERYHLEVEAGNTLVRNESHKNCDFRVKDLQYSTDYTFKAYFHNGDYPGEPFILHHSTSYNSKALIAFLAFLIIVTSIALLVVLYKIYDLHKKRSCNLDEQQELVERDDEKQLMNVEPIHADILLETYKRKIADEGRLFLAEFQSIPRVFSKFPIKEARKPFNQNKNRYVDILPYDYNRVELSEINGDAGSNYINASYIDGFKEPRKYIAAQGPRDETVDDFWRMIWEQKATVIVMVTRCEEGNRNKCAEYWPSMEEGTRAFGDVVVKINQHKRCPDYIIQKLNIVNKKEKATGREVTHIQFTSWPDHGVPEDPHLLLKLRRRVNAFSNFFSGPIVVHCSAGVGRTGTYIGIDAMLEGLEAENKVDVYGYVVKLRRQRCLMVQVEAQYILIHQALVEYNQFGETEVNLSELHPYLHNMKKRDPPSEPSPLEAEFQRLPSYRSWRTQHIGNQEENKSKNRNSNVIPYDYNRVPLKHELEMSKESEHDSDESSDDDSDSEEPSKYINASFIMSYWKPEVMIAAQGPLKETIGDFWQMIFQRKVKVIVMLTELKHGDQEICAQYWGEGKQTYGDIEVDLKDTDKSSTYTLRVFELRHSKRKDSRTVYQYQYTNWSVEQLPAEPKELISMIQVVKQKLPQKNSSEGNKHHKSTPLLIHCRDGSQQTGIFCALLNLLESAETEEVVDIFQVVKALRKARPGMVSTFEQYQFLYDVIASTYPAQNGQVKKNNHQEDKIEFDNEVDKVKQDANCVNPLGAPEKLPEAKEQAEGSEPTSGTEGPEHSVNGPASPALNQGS
UniProt P20962: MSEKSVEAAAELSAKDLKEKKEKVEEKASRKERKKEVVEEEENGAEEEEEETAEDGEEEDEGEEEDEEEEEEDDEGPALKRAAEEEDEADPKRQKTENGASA
UniProt P41219, whole entry, looked up: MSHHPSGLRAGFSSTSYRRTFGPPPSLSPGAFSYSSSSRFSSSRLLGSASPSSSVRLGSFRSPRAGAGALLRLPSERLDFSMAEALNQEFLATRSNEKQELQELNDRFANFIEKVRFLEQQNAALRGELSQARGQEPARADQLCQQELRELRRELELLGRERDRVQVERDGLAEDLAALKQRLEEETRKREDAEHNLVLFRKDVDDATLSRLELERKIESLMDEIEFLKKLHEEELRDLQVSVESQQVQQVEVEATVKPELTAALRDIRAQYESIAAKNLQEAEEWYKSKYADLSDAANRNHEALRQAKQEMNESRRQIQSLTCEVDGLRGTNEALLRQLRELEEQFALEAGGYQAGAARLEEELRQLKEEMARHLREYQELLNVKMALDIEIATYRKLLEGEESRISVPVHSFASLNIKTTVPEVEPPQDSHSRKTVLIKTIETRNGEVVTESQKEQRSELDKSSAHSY
UniProt Q15185: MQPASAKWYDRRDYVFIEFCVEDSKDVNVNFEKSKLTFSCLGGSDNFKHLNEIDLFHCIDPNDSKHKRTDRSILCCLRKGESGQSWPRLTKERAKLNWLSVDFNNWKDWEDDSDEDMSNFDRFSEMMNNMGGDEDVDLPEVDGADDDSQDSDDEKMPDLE
UniProt Q9UKA9: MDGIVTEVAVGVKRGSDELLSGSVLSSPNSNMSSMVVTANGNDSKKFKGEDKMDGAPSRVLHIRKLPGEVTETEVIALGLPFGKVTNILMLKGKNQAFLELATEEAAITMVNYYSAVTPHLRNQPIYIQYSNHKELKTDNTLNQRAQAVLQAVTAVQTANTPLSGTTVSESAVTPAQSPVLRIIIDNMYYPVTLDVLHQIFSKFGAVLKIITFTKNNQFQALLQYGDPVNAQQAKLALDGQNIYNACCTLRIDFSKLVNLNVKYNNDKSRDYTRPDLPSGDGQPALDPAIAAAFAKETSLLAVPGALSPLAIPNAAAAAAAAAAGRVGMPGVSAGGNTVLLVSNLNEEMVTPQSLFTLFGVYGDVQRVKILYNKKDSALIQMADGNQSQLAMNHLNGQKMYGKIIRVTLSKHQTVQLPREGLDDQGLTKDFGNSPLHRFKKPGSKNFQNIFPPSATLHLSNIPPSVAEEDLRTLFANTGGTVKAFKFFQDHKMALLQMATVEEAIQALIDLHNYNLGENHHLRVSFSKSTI
UniProt P48634: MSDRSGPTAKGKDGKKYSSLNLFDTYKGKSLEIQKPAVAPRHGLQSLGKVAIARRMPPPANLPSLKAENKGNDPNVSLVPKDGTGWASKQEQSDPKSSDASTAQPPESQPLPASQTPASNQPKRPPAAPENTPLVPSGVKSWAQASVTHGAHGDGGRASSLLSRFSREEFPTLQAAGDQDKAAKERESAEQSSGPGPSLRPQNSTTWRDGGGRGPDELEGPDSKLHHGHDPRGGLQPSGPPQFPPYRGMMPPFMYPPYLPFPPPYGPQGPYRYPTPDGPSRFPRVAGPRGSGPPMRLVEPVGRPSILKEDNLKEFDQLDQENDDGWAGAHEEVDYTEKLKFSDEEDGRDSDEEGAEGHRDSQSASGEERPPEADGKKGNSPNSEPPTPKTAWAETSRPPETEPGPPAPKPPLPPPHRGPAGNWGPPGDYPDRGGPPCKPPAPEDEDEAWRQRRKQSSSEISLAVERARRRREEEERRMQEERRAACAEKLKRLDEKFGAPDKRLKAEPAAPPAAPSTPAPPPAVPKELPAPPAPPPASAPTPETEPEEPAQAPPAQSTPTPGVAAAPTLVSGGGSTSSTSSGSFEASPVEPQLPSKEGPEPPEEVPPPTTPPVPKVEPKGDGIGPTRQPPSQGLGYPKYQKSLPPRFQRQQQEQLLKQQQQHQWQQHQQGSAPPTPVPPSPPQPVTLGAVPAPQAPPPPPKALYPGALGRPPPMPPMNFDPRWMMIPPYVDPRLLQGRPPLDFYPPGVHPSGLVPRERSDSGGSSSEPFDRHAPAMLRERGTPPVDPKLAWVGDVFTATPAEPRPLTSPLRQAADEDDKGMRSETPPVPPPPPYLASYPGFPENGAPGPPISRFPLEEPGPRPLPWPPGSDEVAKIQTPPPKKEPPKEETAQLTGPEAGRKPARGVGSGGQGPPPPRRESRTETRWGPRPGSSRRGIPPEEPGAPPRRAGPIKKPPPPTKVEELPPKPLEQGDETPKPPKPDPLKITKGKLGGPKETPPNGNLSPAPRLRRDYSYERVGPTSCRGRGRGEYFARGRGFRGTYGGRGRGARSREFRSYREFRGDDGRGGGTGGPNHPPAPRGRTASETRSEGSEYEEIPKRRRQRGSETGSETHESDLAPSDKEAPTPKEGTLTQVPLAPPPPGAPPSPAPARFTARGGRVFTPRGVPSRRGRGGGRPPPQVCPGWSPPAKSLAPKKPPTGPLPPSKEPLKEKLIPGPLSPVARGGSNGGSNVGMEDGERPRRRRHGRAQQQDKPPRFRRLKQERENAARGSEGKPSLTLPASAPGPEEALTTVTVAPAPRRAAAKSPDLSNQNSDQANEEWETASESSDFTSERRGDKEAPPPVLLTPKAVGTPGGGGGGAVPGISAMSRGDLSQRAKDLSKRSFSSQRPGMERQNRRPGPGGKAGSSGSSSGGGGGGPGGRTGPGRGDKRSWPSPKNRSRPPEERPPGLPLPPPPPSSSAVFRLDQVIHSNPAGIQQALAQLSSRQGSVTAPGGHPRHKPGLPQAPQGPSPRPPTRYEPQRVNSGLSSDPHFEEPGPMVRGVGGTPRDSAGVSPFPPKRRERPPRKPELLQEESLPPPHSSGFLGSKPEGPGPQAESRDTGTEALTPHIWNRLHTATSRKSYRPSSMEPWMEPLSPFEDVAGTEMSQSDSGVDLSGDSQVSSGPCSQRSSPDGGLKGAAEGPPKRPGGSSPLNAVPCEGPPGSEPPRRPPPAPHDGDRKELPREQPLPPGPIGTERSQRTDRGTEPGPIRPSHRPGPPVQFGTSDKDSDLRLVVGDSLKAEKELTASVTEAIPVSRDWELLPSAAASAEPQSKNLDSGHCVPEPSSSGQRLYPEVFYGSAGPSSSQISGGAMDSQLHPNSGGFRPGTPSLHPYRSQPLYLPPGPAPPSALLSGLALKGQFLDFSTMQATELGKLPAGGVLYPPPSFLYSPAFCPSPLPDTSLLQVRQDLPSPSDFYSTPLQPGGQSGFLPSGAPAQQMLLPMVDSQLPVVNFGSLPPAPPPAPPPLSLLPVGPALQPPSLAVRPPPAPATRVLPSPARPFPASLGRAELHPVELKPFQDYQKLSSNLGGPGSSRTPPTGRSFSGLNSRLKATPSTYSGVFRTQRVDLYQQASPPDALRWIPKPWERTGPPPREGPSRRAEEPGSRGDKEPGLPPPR
UniProt O00232: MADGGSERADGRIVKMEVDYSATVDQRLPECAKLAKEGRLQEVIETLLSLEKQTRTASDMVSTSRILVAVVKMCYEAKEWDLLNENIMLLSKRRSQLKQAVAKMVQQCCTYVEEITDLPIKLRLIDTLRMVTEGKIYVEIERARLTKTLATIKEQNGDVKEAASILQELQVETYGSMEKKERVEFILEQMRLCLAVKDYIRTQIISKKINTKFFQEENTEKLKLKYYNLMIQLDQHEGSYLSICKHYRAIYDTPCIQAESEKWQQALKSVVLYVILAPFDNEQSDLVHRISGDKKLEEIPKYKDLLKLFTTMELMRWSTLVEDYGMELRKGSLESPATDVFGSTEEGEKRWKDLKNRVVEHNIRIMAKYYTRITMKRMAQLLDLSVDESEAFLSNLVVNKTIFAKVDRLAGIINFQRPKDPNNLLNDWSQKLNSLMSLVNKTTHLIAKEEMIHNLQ
UniProt P49721: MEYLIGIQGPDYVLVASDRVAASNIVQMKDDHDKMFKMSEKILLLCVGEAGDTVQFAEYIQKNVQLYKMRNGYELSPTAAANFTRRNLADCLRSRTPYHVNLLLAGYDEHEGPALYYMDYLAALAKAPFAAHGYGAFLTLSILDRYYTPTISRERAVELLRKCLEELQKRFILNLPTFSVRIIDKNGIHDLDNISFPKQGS
UniProt P25789: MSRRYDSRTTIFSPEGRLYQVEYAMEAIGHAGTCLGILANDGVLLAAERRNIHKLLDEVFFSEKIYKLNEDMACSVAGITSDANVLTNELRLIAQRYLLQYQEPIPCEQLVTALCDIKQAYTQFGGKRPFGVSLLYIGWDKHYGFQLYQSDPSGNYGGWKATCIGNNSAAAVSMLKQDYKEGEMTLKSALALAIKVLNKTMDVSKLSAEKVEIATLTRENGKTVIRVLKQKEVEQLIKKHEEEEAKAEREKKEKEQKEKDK

Tubastatin A = compound: CN1CCc2c(c3ccccc3n2Cc2ccc(C(=O)NO)cc2)C1 [Tubastatin A]
How it was run: as §1

[1] = compound: CNC(=O)C1=CC=CC=C1NC2=NC(=NC=C2Cl)NC3=C(C=C(C=C3)N4CCOCC4)OC
How it was run: as §1

defactinib = compound: CNC(=O)c1ccc(Nc2ncc(C(F)(F)F)c(NCc3nccnc3N(C)S(C)(=O)=O)n2)cc1 [defactinib]
How it was run: as §1

[2] = compound: CNc1nc(-c2ccc3c(N)n[nH]c3c2)cc(N2C[C@@H](C(=O)NC3CCCCC3)CC[C@H]2C)n1
How it was run: as §1

encorafenib = compound: COC(=O)N[C@@H](C)CNc1nccc(-c2cn(C(C)C)nc2-c2cc(Cl)cc(NS(C)(=O)=O)c2F)n1 [encorafenib]
How it was run: as §1

[3] = compound: COC(=O)[C@H](CCSC)NC(=O)C1=C(C=C(C=C1)NC[C@H](CS)N)C2=CC=CC=C2
How it was run: as §1

alisertib = compound: COc1cc(Nc2ncc3c(n2)-c2ccc(Cl)cc2C(c2c(F)cccc2OC)=NC3)ccc1C(=O)O [alisertib]
How it was run: as §1

[4] = compound: COc1cc2nc(-c3cc(F)ccc3O)nc(N[C@@H]3CNC[C@H]3C(C)(C)O)c2cc1OC
How it was run: as §1

gefitinib = compound: COc1cc2ncnc(Nc3ccc(F)c(Cl)c3)c2cc1OCCCN1CCOCC1 [gefitinib]
How it was run: as §1

lapatinib = compound: CS(=O)(=O)CCNCc1ccc(-c2ccc3ncnc(Nc4ccc(OCc5cccc(F)c5)c(Cl)c4)c3c2)o1 [lapatinib]
How it was run: as §1

pictilisib = compound: CS(=O)(=O)N1CCN(Cc2cc3nc(-c4cccc5[nH]ncc45)nc(N4CCOCC4)c3s2)CC1 [pictilisib]
How it was run: as §1

crizotinib = compound: C[C@@H](Oc1cc(-c2cnn(C3CCNCC3)c2)cnc1N)c1c(Cl)ccc(F)c1Cl [crizotinib]
How it was run: as §1

[5] = compound: C[C@H](C1=CC=C(C=C1)C(=O)NC2=C3C=CNC3=NC=C2)N
How it was run: as §1

duvelisib = compound: C[C@H](Nc1ncnc2nc[nH]c12)c1cc2cccc(Cl)c2c(=O)n1-c1ccccc1 [duvelisib]
How it was run: as §1

gandotinib = compound: Cc1cc(Nc2cc(CN3CCOCC3)c3nc(C)c(Cc4ccc(Cl)cc4F)n3n2)n[nH]1 [gandotinib]
How it was run: as §1

tozasertib = compound: Cc1cc(Nc2cc(N3CCN(C)CC3)nc(Sc3ccc(NC(=O)C4CC4)cc3)n2)n[nH]1 [tozasertib]
How it was run: as §1

doramapimod = compound: Cc1ccc(-n2nc(C(C)(C)C)cc2NC(=O)Nc2ccc(OCCN3CCOCC3)c3ccccc23)cc1 [doramapimod]
How it was run: as §1

bafetinib = compound: Cc1ccc(NC(=O)c2ccc(CN3CC[C@H](N(C)C)C3)c(C(F)(F)F)c2)cc1Nc1nccc(-c2cncnc2)n1 [bafetinib]
How it was run: as §1

[6] = compound: Cc1cccc(CC(=O)N2CCc3c2ccc(-c2cn(C)c4ncnc(N)c24)c3F)n1
How it was run: as §1

Measured: log2 fold change

PRXL2B isoform 3 (UniProt Q8TBF2)
inactive: alvocidib 0.049 | Tubastatin A 0.041 | [1] 0.037 | defactinib -0.025 | [2] 0.118 | encorafenib -0.015 | [3] 0.129 | alisertib 0.028 | [4] -0.007 | gefitinib 0.002 | lapatinib 0.017 | pictilisib -0.04 | crizotinib -0.022 | [5] -0.074 | duvelisib 0.044 | gandotinib -0.027 | tozasertib -0.002 | doramapimod 0.042 | bafetinib -0.004 | [6] 0.025

PRPSAP1 isoform 2 (UniProt Q14558)
inactive: alvocidib 0.016 | Tubastatin A 0.02 | [1] 0.001 | defactinib 0.007 | [2] 0.023 | encorafenib -0.029 | [3] -0.055 | alisertib 0.007 | [4] -0.009 | gefitinib -0.02 | lapatinib 0.006 | pictilisib -0.023 | crizotinib -0.001 | [5] -0.021 | duvelisib 0.004 | gandotinib -0.017 | tozasertib 0.041 | doramapimod -0.013 | bafetinib 0.019 | [6] 0.036

PUF60 (UniProt Q9UHX1)
inactive: alvocidib 0.003 | Tubastatin A 0.019 | [1] -0.02 | defactinib -0.012 | [2] 0.008 | encorafenib -0.013 | [3] 0.019 | alisertib 0.005 | [4] -0.009 | gefitinib -0.022 | lapatinib 0 | pictilisib -0.037 | crizotinib 0.036 | [5] 0.092 | duvelisib -0.01 | gandotinib -0.05 | tozasertib -0.017 | doramapimod -0.012 | bafetinib 0.012 | [6] -0.058

PSMD8 (UniProt P48556)
inactive: alvocidib -0.021 | Tubastatin A -0.017 | [1] 0.019 | defactinib 0.047 | [2] -0.013 | encorafenib -0.002 | [3] 0.058 | alisertib 0.028 | [4] -0.026 | gefitinib -0.047 | lapatinib -0.028 | pictilisib -0.004 | crizotinib -0.022 | [5] -0.032 | duvelisib 0.006 | gandotinib -0.078 | tozasertib 0.011 | doramapimod 0.052 | bafetinib -0.07 | [6] 0.028

PSMA3 (UniProt P25788)
inactive: alvocidib 0.026 | Tubastatin A 0.005 | [1] -0.007 | defactinib -0.003 | [2] 0.009 | encorafenib 0.006 | [3] -0.015 | alisertib 0 | [4] 0.001 | gefitinib -0.006 | lapatinib -0.01 | pictilisib -0.021 | crizotinib 0.063 | [5] 0.013 | duvelisib 0.005 | gandotinib 0.024 | tozasertib 0.002 | doramapimod -0.001 | bafetinib 0.038 | [6] -0.011

Reprinted at random: two entries already listed
PRXL2B isoform 3 (UniProt Q8TBF2)
inactive: alvocidib 0.049 | Tubastatin A 0.041 | [1] 0.037 | defactinib -0.025 | [2] 0.118 | encorafenib -0.015 | [3] 0.129 | alisertib 0.028 | [4] -0.007 | gefitinib 0.002 | lapatinib 0.017 | pictilisib -0.04 | crizotinib -0.022 | [5] -0.074 | duvelisib 0.044 | gandotinib -0.027 | tozasertib -0.002 | doramapimod 0.042 | bafetinib -0.004 | [6] 0.025

PRPSAP1 isoform 2 (UniProt Q14558)
inactive: alvocidib 0.016 | Tubastatin A 0.02 | [1] 0.001 | defactinib 0.007 | [2] 0.023 | encorafenib -0.029 | [3] -0.055 | alisertib 0.007 | [4] -0.009 | gefitinib -0.02 | lapatinib 0.006 | pictilisib -0.023 | crizotinib -0.001 | [5] -0.021 | duvelisib 0.004 | gandotinib -0.017 | tozasertib 0.041 | doramapimod -0.013 | bafetinib 0.019 | [6] 0.036

Later entries

PTPRC (UniProt P08575)
inactive: alvocidib -0.027 | Tubastatin A 0.023 | [1] -0.018 | defactinib -0.025 | [2] -0.007 | encorafenib -0.021 | [3] -0.029 | alisertib -0.004 | [4] 0.004 | gefitinib 0.045 | lapatinib -0.005 | pictilisib -0.007 | crizotinib -0.001 | [5] -0.07 | duvelisib 0.036 | gandotinib 0.032 | tozasertib -0.007 | doramapimod 0.008 | bafetinib 0.016 | [6] 0.04

PTMS (UniProt P20962)
inactive: alvocidib -0.003 | Tubastatin A 0.045 | [1] -0.003 | defactinib -0.011 | [2] 0.012 | encorafenib -0.037 | [3] -0.043 | alisertib -0.012 | [4] 0.021 | gefitinib 0.024 | lapatinib 0.029 | pictilisib -0.018 | crizotinib 0.012 | [5] 0.016 | duvelisib 0 | gandotinib 0.025 | tozasertib -0.009 | doramapimod -0.058 | bafetinib -0.044 | [6] -0.056

PRPH isoform 2 (UniProt P41219)
inactive: alvocidib 0.062 | Tubastatin A 0.021 | [1] -0.049 | defactinib -0.081 | [2] -0.133 | encorafenib -0.023 | [3] -0.178 | alisertib -0.012 | [4] -0.028 | gefitinib 0.014 | lapatinib 0.082 | pictilisib 0.131 | crizotinib 0.05 | [5] 0.03 | duvelisib 0.051 | gandotinib -0.08 | tozasertib 0.096 | doramapimod -0.015 | bafetinib 0.025 | [6] 0.001

PTGES3 (UniProt Q15185)
inactive: alvocidib 0.018 | Tubastatin A 0.004 | [1] 0.009 | defactinib 0.002 | [2] 0.039 | encorafenib -0.035 | [3] -0.021 | alisertib -0.011 | [4] -0.006 | gefitinib -0.022 | lapatinib 0.003 | pictilisib -0.006 | crizotinib -0.005 | [5] 0.089 | duvelisib 0.002 | gandotinib -0.008 | tozasertib -0.048 | doramapimod -0.004 | bafetinib 0.064 | [6] -0.039

PSMB3 (UniProt P49720)
inactive: alvocidib -0.008 | Tubastatin A 0.019 | [1] -0.009 | defactinib 0.018 | [2] 0.003 | encorafenib 0.003 | [3] -0.013 | alisertib -0.014 | [4] 0.012 | gefitinib 0 | lapatinib -0.019 | pictilisib -0.038 | crizotinib 0.04 | [5] -0.032 | duvelisib 0.044 | gandotinib 0.062 | tozasertib 0.037 | doramapimod -0.003 | bafetinib 0.036 | [6] 0.036

PTBP2 isoform 2 (UniProt Q9UKA9)
inactive: alvocidib -0.104 | Tubastatin A 0.059 | [1] 0.019 | defactinib 0.057 | [2] 0.033 | encorafenib -0.02 | [3] 0.104 | alisertib -0.033 | [4] 0.022 | gefitinib 0.106 | lapatinib 0.024 | pictilisib 0.069 | crizotinib 0.032 | [5] 0.11 | duvelisib 0.013 | gandotinib -0.095 | tozasertib -0.018 | doramapimod -0.021 | bafetinib -0.004 | [6] -0.1

PRRC2A (UniProt P48634)
inactive: alvocidib -0.006 | Tubastatin A -0.014 | [1] -0.001 | defactinib 0.046 | [2] -0.012 | encorafenib 0.048 | [3] -0.044 | alisertib 0.016 | [4] 0.005 | gefitinib -0.008 | lapatinib -0.02 | pictilisib -0.017 | crizotinib 0.06 | [5] 0.011 | duvelisib -0.001 | gandotinib 0.007 | tozasertib -0.013 | doramapimod -0.073 | bafetinib 0.031 | [6] -0.058

PSMD12 (UniProt O00232)
inactive: alvocidib 0.023 | Tubastatin A 0.007 | [1] -0.004 | defactinib 0.021 | [2] -0.024 | encorafenib -0.006 | [3] 0.012 | alisertib 0.004 | [4] 0.004 | gefitinib 0 | lapatinib -0.026 | pictilisib -0.014 | crizotinib -0.005 | [5] 0.022 | duvelisib -0.008 | gandotinib -0.069 | tozasertib -0.009 | doramapimod 0.012 | bafetinib -0.02 | [6] -0.025

PSMB2 (UniProt P49721)
inactive: alvocidib 0.008 | Tubastatin A 0.049 | [1] -0.014 | defactinib 0.007 | [2] 0.04 | encorafenib 0.011 | [3] -0.055 | alisertib 0.004 | [4] 0.005 | gefitinib -0.034 | lapatinib -0.021 | pictilisib 0.011 | crizotinib -0.012 | [5] -0.017 | duvelisib 0.028 | gandotinib 0.003 | tozasertib 0.024 | doramapimod 0.006 | bafetinib -0.017 | [6] -0.008

PSMA4 (UniProt P25789)
inactive: alvocidib 0.019 | Tubastatin A 0.026 | [1] 0 | defactinib -0.011 | [2] 0.012 | encorafenib -0.005 | [3] -0.004 | alisertib -0.007 | [4] 0.01 | gefitinib 0.014 | lapatinib -0.001 | pictilisib 0.038 | crizotinib 0.027 | [5] 0.001 | duvelisib 0.008 | gandotinib 0.013 | tozasertib -0.041 | doramapimod -0.006 | bafetinib 0.033 | [6] 0

PRRC2B (UniProt Q5JSZ5)
inactive: alvocidib 0.043 | Tubastatin A -0.033 | [1] 0.027 | defactinib 0.016 | [2] 0.043 | encorafenib 0.097 | [3] -0.053 | alisertib 0.01 | [4] 0.024 | gefitinib -0.065 | lapatinib 0.103 | pictilisib -0.036 | crizotinib 0.091 | [5] -0.005 | duvelisib -0.009 | gandotinib 0.04 | tozasertib 0.018 | doramapimod -0.044 | bafetinib 0.075 | [6] -0.017

Reference: the supplement of paper PMC10849652
